Test [1] addresses HA-tagged Jagged1 (JAG1) intracellular domain (human) (UniProt P78504). Nature of the test: co-IP; IP with anti-HA antibody and Protein A/G agarose from lysates (Pierce IP lysis buffer with protease and phosphatase inhibitors) of stable HA-JICD1-overexpressing A172 and U87MG cells; IgG isotype control; blots for DDX17, SMAD3, pSMAD3 (Ser 213), pSMAD3 (Ser 423/425).
The next test addresses HA-DDX17 (UniProt Q92841). Nature of the test: co-IP; IP with anti-HA antibody (HA-DDX17) from lysates of HEK293T cells co-transfected with HA-DDX17 and FLAG-SMAD3 or FLAG-SMAD3 mutants; 5 uM MG-132 for 12 h before harvest; with or without SB431542; blot with anti-FLAG.

Protein sequences, listed by entry. Tags and fused reporters are not part of them. Lines headed by an entry give the natural chain unless they say otherwise; changes in a name come on top.
UniProt P78504: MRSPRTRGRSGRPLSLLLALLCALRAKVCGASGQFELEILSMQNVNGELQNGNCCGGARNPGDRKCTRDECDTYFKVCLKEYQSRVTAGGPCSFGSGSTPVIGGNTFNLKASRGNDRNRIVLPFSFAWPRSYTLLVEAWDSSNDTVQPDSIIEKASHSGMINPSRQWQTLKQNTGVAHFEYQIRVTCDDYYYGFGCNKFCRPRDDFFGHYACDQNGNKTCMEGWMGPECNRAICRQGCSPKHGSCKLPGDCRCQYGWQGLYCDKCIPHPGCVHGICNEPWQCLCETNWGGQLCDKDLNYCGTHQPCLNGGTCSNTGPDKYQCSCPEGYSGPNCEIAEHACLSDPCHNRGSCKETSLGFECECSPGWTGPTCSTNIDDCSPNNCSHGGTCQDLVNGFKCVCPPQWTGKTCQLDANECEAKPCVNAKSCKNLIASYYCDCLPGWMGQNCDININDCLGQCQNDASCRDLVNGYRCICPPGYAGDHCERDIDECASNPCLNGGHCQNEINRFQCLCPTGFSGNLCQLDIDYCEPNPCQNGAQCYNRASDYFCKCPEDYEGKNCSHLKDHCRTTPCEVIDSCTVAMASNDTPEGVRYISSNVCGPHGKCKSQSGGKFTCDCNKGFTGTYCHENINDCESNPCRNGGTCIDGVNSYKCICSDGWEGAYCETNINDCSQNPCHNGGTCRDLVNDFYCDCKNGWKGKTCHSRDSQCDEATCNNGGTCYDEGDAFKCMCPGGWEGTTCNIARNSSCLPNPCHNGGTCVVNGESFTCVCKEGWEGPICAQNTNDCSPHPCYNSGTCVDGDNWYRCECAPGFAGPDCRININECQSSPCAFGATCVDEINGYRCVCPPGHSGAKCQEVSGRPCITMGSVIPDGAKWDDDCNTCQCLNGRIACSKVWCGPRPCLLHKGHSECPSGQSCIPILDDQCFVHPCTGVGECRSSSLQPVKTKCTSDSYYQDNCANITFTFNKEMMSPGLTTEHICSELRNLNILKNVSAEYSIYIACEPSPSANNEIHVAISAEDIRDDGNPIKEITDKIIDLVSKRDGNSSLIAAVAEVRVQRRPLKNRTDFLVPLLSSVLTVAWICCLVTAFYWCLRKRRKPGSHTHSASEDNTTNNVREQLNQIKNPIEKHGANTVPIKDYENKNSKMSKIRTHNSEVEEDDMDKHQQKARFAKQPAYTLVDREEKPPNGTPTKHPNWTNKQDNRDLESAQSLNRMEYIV
UniProt Q92841: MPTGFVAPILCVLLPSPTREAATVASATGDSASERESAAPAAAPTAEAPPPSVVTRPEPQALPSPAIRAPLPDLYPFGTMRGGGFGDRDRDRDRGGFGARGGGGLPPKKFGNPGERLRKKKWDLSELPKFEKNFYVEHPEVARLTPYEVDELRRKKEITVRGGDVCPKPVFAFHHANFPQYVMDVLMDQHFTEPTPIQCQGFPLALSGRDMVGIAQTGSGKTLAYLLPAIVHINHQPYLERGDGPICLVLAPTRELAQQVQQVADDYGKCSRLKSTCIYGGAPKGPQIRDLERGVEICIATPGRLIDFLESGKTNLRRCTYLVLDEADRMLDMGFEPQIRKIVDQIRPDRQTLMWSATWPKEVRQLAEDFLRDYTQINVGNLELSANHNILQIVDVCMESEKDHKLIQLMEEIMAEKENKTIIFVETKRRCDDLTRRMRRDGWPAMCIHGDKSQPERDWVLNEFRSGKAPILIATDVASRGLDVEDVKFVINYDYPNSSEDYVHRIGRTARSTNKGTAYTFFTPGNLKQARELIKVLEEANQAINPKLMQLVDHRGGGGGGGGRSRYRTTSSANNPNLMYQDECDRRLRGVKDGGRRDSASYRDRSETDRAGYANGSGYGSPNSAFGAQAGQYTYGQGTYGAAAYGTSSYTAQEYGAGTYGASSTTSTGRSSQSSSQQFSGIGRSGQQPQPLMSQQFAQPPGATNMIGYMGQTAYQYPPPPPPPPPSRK
UniProt P84022: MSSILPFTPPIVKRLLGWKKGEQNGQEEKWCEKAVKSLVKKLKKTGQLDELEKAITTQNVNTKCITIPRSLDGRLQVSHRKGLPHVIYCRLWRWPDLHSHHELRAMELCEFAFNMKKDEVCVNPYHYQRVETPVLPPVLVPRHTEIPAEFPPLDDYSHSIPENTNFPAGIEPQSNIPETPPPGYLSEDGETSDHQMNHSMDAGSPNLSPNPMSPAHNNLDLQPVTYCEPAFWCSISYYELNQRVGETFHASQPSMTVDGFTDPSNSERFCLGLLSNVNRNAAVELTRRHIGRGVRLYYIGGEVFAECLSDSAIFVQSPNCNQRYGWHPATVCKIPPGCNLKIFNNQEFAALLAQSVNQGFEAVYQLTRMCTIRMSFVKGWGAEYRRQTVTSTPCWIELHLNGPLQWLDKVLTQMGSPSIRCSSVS

Experimental findings from article PMC10719344 are described below.

Results are given in words; binding and its absence hold for the method and conditions named. Binding seen in cells or lysates may run through a third protein. A result given as binding can be weak or reduced; the word gives no strength.

Take “DEAD-box helicase 17 (DDX17), endogenous (from UniProt Q92841 1-729)”: the binding entry in test [1] is “binds”. Regarding “FLAG-SMAD3 with C-tail mutations (SMAD3-CM) (from UniProt P84022)”, the binding entry in the test with HA-DDX17 is recorded as “binds”.
